Data reported in PubChem BioAssay AID328 (DTP/NCI, 2004).
The list is a part of this screen's results and no random one: it gathers tests that were run many times, whatever their T/C, doses with no T/C, and many T/C values between a quarter and a half above the control. Further doses and runs are listed elsewhere. T/C: endpoint of the treated group in % of that of the vehicle group. Some entries give survivors of the animals treated and no T/C: the source files T/C as zero there, which appears to mark a toxic dose or a test without result, not a measured value. Some doses without a T/C left all or most animals alive at the check, yet need not have been tolerated: the source hardly ever lists a survival T/C far under the control, and the zero likely stands for such cases as well. Counts of survivors are from the toxicity check (mostly the fifth day) where no day follows; animals may have died later. Schedules are NCI's codes, read here as Q, the interval in days (D) or hours (H), X, the number of doses. Some entries were tested several times; the values are given in rising order. Some molecules as drawn cover several salts, stereoisomers or complexes of the source; a dose is that of the sample tested. For survival time, this PubChem deposit counts one and a half times the control or more as active, and values a quarter to a half above the control carry no call in these data; other NCI protocols may use other cut-offs. Some T/C values are followed by the survivors on the day toxicity was checked, most often the fifth; without a count, all were alive then.

Tested on: BDF1 mice, P388 leukemia ip, median survival T/C
Test: NCI In Vivo Anticancer Drug Screen. Data for tumor model P388 Leukemia (intraperitoneal) in B6D2F1 (BDF1) mice
Conditions: T/C endpoint: median survival time, higher T/C = longer survival
Summary of the method: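 T/C = treated-group survival ÷ vehicle-control survival; tumour transplanted into mice before dosing.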

[1] = dose: 50.0 mg/kg/injection, schedule: Q01DX009 (ip), vehicle: saline
[2] = dose: 100.0 mg/kg/injection, schedule: Q01DX009 (ip), vehicle: saline
[3] = dose: 200.0 mg/kg/injection, schedule: Q01DX009 (ip), vehicle: saline
[4] = dose: 50.0 mg/kg/injection, schedule: Q01DX009 (ip), vehicle: saline with Tween-80
[5] = dose: 100.0 mg/kg/injection, schedule: Q01DX009 (ip), vehicle: saline with Tween-80
[6] = dose: 200.0 mg/kg/injection, schedule: Q01DX009 (ip), vehicle: saline with Tween-80
[7] = dose: 1.56 mg/kg/injection, schedule: Q01DX009 (ip), vehicle: saline

## CC(C)NCc1ccccc1Sc1ccccc1CNC(C)C
dose: 200.0 mg/kg/injection, schedule: Q01DX001 (ip), vehicle: saline with Tween-80
  survivor count: 0 of 6
dose: 200.0 mg/kg/injection, schedule: Q04DX002 (ip), vehicle: saline
  survivor count: 1 of 6
dose: 400.0 mg/kg/injection, schedule: Q01DX001 (ip), vehicle: saline with Tween-80
  survivor count: 0 of 6
dose: 400.0 mg/kg/injection, schedule: Q04DX002 (ip), vehicle: saline
  survivor count: 0 of 6

## COC(=O)C(C)CN1CCCCC1 (stereo not drawn)
[1]
  survivor count: 4 of 6
[2]
  survivor count: 5 of 6
[3]
  survivor count: 5 of 6

## N/C(=N\O)c1cccnc1
dose: 300.0 mg/kg/injection, schedule: Q04DX003 (ip), vehicle: water
  survivor count: 5 of 6

## O=C1OC(=O)C2C3CCC(O3)C12 (stereo not drawn)
dose: 3.12 mg/kg/injection, schedule: Q01DX009 (ip), vehicle: saline
  survivor count: 0 of 6
dose: 10.5 mg/kg/injection, schedule: Q01DX001 (ip), vehicle: Klucel (hydroxypropylcellulose) (HPC)
  survivor count: 0 of 6
dose: 10.5 mg/kg/injection, schedule: Q01DX001 (ip), vehicle: saline
  survivor count: 1 of 6
dose: 11.0 mg/kg/injection, schedule: Q04DX003 (ip), vehicle: saline
  survivor count: 3 of 6
dose: 16.0 mg/kg/injection, schedule: Q04DX003 (ip), vehicle: saline
  survivor count: 1 of 6
dose: 21.0 mg/kg/injection, schedule: Q01DX001 (ip), vehicle: saline
  survivor count: 0 of 6

## CCN1/C(=C/C=C/C=C/c2sc3ccccc3[n+]2CC)Sc2ccccc21
dose: 0.19 mg/kg/injection, schedule: Q01DX009 (ip), vehicle: suspension in saline
  T/C: 139 % of control
dose: 0.38 mg/kg/injection, schedule: Q01DX009 (ip), vehicle: suspension in saline
  T/C: 141 % of control [4 of 6 alive]
dose: 0.75 mg/kg/injection, schedule: Q01DX009 (ip), vehicle: suspension in saline
  survivor count: 0 of 6
dose: 1.5 mg/kg/injection, schedule: Q01DX009 (ip), vehicle: suspension in saline
  survivor count: 0 of 6

## Cc1ncc([N+](=O)[O-])n1CCSC(N)=O
dose: 400.0 mg/kg/injection, schedule: Q04DX003 (ip), vehicle: saline with Tween-80
  T/C: 138 % of control

## COC(=O)C1=COC(C)C2CN3CCc4c([nH]c5ccccc45)C3CC12 (stereo not drawn)
dose: 80.0 mg/kg/injection, schedule: Q01DX010 (ip), vehicle: saline
  survivor count: 7 of 7
dose: 320.0 mg/kg/injection, schedule: Q01DX010 (ip), vehicle: saline
  survivor count: 6 of 7

## Nc1ccc(O)c2ncccc12
dose: 30.0 mg/kg/injection, schedule: Q01DX010 (ip), vehicle: saline
  survivor count: 4 of 6
dose: 60.0 mg/kg/injection, schedule: Q01DX010 (ip), vehicle: saline
  survivor count: 1 of 6

## O=C(O)c1ccc(=O)oc1
[4]
  T/C: 132 % of control
[5]
  T/C: 128 % of control

## CC(=O)[O][Hg][c]1s[c]([Hg][O]C(C)=O)[c]([Hg][O]C(C)=O)[c]1[Hg][O]C(C)=O
dose: 15.0 mg/kg/injection, schedule: Q04DX003 (ip), vehicle: saline
  survivor count: 2 of 6
dose: 30.0 mg/kg/injection, schedule: Q04DX003 (ip), vehicle: saline
  survivor count: 3 of 6

## NC(N)=Nc1ccc(C(=O)Oc2ccc([N+](=O)[O-])cc2CN2CCCCC2)cc1
dose: 12.5 mg/kg/injection, schedule: Q01DX009 (ip), vehicle: water
  survivor count: 1 of 6
dose: 25.0 mg/kg/injection, schedule: Q01DX009 (ip), vehicle: water
  survivor count: 0 of 6

## c1ccc([P+](CCN2Cc3ccccc3C2)(c2ccccc2)c2ccccc2)cc1
dose: 25.0 mg/kg/injection, schedule: Q01DX009 (ip), vehicle: saline
  survivor count: 6 of 6
[1]
  survivor count: 1 of 6

## N#Cc1nc(C#N)c(Sc2ccccc2)c(Sc2ccccc2)c1Sc1ccccc1
[4]
  T/C: 125 % of control
[5]
  T/C: 132 % of control
  survivor count: 3 of 6
[6]
  survivor count: 3 of 6

## CC1CN1P1(N2CC2C)=NP(N2CC2C)(N2CC2C)=NP(N2CC2C)(N2CC2C)=N1 (stereo not drawn)
dose: 10.0 mg/kg/injection, schedule: Q01DX009 (ip), vehicle: saline
  T/C: 130 % of control
dose: 11.0 mg/kg/injection, schedule: Q01DX009 (ip), vehicle: saline
  T/C: 126 % of control
dose: 12.5 mg/kg/injection, schedule: Q01DX009 (ip), vehicle: saline
  T/C: 138 % of control
dose: 50.0 mg/kg/injection, schedule: Q04DX003 (ip), vehicle: saline
  T/C: 130 % of control
[2]
  survivor count: 5 of 6
[3]
  survivor count: 5 of 6
dose: 200.0 mg/kg/injection, schedule: Q04DX003 (ip), vehicle: saline
  survivor count: 4 of 6
dose: 400.0 mg/kg/injection, schedule: Q04DX003 (ip), vehicle: saline
  survivor count: 0 of 6

## COC(=O)CCc1ccc(NP(=O)(N2CC2)N2CC2)cc1
[5]
  T/C: 131 % of control
dose: 132.0 mg/kg/injection, schedule: Q04DX003 (ip), vehicle: saline with Tween-80
  T/C: 136 % of control [5 of 6 alive]
dose: 150.0 mg/kg/injection, schedule: Q01DX009 (ip), vehicle: saline with Tween-80
  survivor count: 6 of 6
dose: 200.0 mg/kg/injection, schedule: Q04DX003 (ip), vehicle: saline with Tween-80
  T/C: 136 % of control

## NNC(=O)c1ccc(Cl)c(Cl)c1
[6]
  survivor count: 3 of 6
dose: 400.0 mg/kg/injection, schedule: Q01DX001 (ip), vehicle: saline sonified
  survivor count: 0 of 6

## CC(C)C(=O)[O][Sn]([CH3])([CH3])[CH3]
dose: 3.0 mg/kg/injection, schedule: Q01DX009 (ip), vehicle: saline
  survivor count: 1 of 6

## C=CS(=O)(=O)Cc1ccccc1
dose: 100.0 mg/kg/injection, schedule: Q04DX003 (ip), vehicle: saline with Tween-80
  survivor count: 1 of 6

## CC(=O)[C@@]1(O)CC[C@H]2[C@@H]3C[C@H](C)C4=CC(=O)CC[C@]4(C)[C@H]3[C@@H](O)C[C@@]21C
[5]
  T/C: 127 % of control

## O=c1[nH]c(=O)n([C@H]2CCCO2)cc1F
dose: 201.0 mg/kg/injection, schedule: Q01DX009 (ip), vehicle: Klucel (hydroxypropylcellulose) (HPC)
  T/C: 129 % of control
dose: 645.0 mg/kg/injection, schedule: Q04DX003 (ip), vehicle: Klucel (hydroxypropylcellulose) (HPC)
  T/C: 132 % of control
dose: 833.0 mg/kg/injection, schedule: Q04DX003 (ip), vehicle: water
  survivor count: 1 of 8
dose: 957.0 mg/kg/injection, schedule: Q01DX001 (ip), vehicle: Klucel (hydroxypropylcellulose) (HPC)
  T/C: 137 % of control
dose: 1436.0 mg/kg/injection, schedule: Q01DX001 (ip), vehicle: Klucel (hydroxypropylcellulose) (HPC)
  T/C: 137 % of control

## CCOC(=O)c1cc2ccccc2oc1=O
[5]
  survivor count: 6 of 6

## Cc1cc(N(c2c(Cl)c(Cl)c(NS(=O)(=O)c3ccccc3)c(Cl)c2Cl)S(=O)(=O)c2ccccc2)cc(C)c1N
dose: 100.0 mg/kg/injection, schedule: Q01DX009 (ip), vehicle: Klucel (hydroxypropylcellulose) (HPC)
  survivor count: 6 of 6

## C[N+](C)(C)c1ncncn1
dose: 100.0 mg/kg/injection, schedule: Q01DX001 (ip), vehicle: saline
  survivor count: 2 of 6
dose: 200.0 mg/kg/injection, schedule: Q01DX001 (ip), vehicle: saline
  survivor count: 2 of 6
dose: 400.0 mg/kg/injection, schedule: Q01DX001 (ip), vehicle: saline
  survivor count: 0 of 6

## NC(=S)NNC(=O)C(Cc1ccccc1)NC(=O)OCc1ccccc1 (stereo not drawn)
[4]
  survivor count: 5 of 6

## CCOc1ccn(CC(=O)c2ccc([N+](=O)[O-])o2)c(=O)n1
[6]
  survivor count: 2 of 6

## CCC[n+]1c(/C=C/c2c(OC)cc(OC)cc2OC)ccc2ccccc21
dose: 0.39 mg/kg/injection, schedule: Q01DX009 (ip), vehicle: saline
  T/C: 130 % of control
dose: 0.78 mg/kg/injection, schedule: Q01DX009 (ip), vehicle: saline
  survivor count: 3 of 6
[7]
  T/C: 134 % of control [5 of 6 alive]
  survivor count: 2 of 6
dose: 3.13 mg/kg/injection, schedule: Q01DX009 (ip), vehicle: saline
  survivor count: 1 of 6 and 2 of 6
dose: 6.25 mg/kg/injection, schedule: Q01DX009 (ip), vehicle: saline
  survivor count: 0 of 6
[4]
  survivor count: 0 of 6
[5]
  survivor count: 0 of 6
[6]
  survivor count: 0 of 6
